Laboratory results: patent publication US20230181677A1, “POLYPEPTIDE FOR PROMOTING BONE REGENERATION OR BONE FORMATION AND ITS USE” (SEWON BIOTECHNOLOGY INC., priority 2016, published 2023)
At least one peptide structure holds a part that was inferred or is arguable (an end, a ring closure or a residue). Where no end group is shown, it is not given here.

How the values were obtained:
[1] = tested on: rat calvarial defect model; experiment: bone regeneration in rat calvarial defect model (ACS graft, micro-CT, qRT-PCR); format: in vivo
[2] = tested on: embryos of pregnant mouse (C57BL/6); experiment: bone formation promotion during embryo development, injection into pregnant mouse; format: in vivo; conditions: 10 mg/kg into abdominal cavity of pregnant mouse
mesenchymal stem cells = experiment: cell adhesion to hydrophobic surface; format: cell-based, human
osteoblasts = experiment: cell attachment on titanium surface (rhodamine phalloidin/DAPI, confocal); format: cell-based
[3] = tested on: osteogenic precursor cells; experiment: adhesion area of cells on orthopedic titanium surfaces; format: cell-based
[4] = tested on: mesenchymal stem cells (hMSC) and bone marrow-derived undifferentiated stem cells (ST-2); experiment: cell distribution on zirconia surface (ALP staining); format: cell-based; conditions: zirconia surface 10 mm diameter, 72 hours culture

**Q.** How did the “bone regeneration in the defect area (volume of new bone tissue, micro-CT)” value ([1]; 3 and 5 weeks, peptide 100 μg/ACS disc, rhBMP-2 2 μg/ACS disc) turn out when RQLVVKFRALPC [present peptide] was run?
**A.** significantly increased

**Q.** And the “osteogenesis-related gene expression in newly formed tissue (quantitative real-time PCR)” value ([1]; 3 weeks and 5 weeks, versus control)?
**A.** Higher levels of osteogenesis-related gene expression

**Q.** What about the “Dmp1 (dentin matrix protein 1) expression, osteocyte marker” value ([1]; quantitative real-time PCR of newly formed tissue) of the same sequence?
**A.** significant increase

**Q.** What about the “bone calcification level (whole skeletal staining, Alizarine red)” value [2] of the same sequence?
**A.** markedly increased

**Q.** What about the “growth in length in bone tissue regions (hind limb histology, H&E)” value [2] of the same sequence?
**A.** also increased

**Q.** And the “growth of cartilage (H&E, Alcian blue)” value [2]?
**A.** also increased

**Q.** What about the “density of the bone tissue of embryos (micro-CT)” value ([2]; embryos at E16.5) of the same sequence?
**A.** significantly increased

**Q.** What about the “cells attached to the surface” value (mesenchymal stem cells; 10 μM peptide, from as early as 5 min after treatment) of the same sequence?
**A.** more than 50%

**Q.** What about the “minimum peptide concentration giving significant levels of adhesion” value (mesenchymal stem cells; hydrophobic surface, DNA quantification of attached cells) of the same sequence?
**A.** ≥ 1 µM

**Q.** And the “time until adhesion of osteoblasts reached complete maturation stage” value (osteoblasts)?
**A.** about 60 minutes

**Q.** And the “area occupied by each cell” value ([3]; control 500-1,000 μm^2)?
**A.** 1,500-3,000 μm^2

**Q.** What about the “area covered by the cells relative to control” value ([3]; in average) of the same sequence?
**A.** about three times larger

**Q.** And the “cell distribution on the graft material (ALP staining)” value [4]?
**A.** uniformly distributed covering most of the areas of the graft material
